Measured data: PubChem BioAssay AID1259425 (University of Nebraska Medical Center, 2018)
Aim: 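Seek colon cancer weak points whose silencing resembles KSR1 loss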 (primary screen). Cell system: HCT116 human colon cancer cells. Reagents: siRNA pool against human genes, 50 nM siRNA. Read-out: 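mRNA of six signature genes measured together by branched-DNA assay after 50 nM siRNA pool, blank removed, divided by geometric mean of two housekeeping genes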. Direction: BNIP3L mRNA: higher = more BNIP3L transcript after knockdown.
The deposit covers about 14,000 reagents; this is an unselected part. Further read-outs or replicates are left out here. No sequences are given here. The record does not give: the time to read-out.

"BNIP3L mRNA, set 1",gene symbol,PubChem SID
0.161,ANLN (GeneID 54443),SID364001179
0.111,MLLT3 (GeneID 4300),SID363995503
0.147,PTBP3 (GeneID 9991),SID363996084
0.207,LRMDA (GeneID 83938),SID364003744
0.0919,SNAPC4 (GeneID 6621),SID363994230
0.0711,PPP1R15B (GeneID 84919),SID364004211
0.121,TINAG (GeneID 27283),SID363998876
0.125,PKN2 (GeneID 5586),SID363997079
0.105,HAL (GeneID 3034),SID363993314
0.111,ANPEP (GeneID 290),SID363992442
0.16,XPR1 (GeneID 9213),SID363995695

Next part, starting with the last 2 of the part before.
"BNIP3L mRNA, set 1",gene symbol,PubChem SID
0.111,ANPEP (GeneID 290),SID363992442
0.16,XPR1 (GeneID 9213),SID363995695
0.114,IFT81 (GeneID 28981),SID363998579
0.0413,GEMIN8 (GeneID 54960),SID364000587
0.0897,TDP2 (GeneID 51567),SID364000238
0.0829,KCTD5 (GeneID 54442),SID364001313
0.163,TMEM191A (GeneID 84222),SID364003856
0.0886,E2F2 (GeneID 1870),SID363995101
0.0542,OSM (GeneID 5008),SID364001727
0.108,BCL3 (GeneID 602),SID363996105
0.12,APOBEC3D (GeneID 140564),SID363991342
